The source of these data is patent US20130309254A1.

The assay has as its target GRIN1, wild-type (UniProt Q05586). As to the kind of experiment: co-immunoprecipitation with anti-GRIN1 from transfected HEK293T cells, anti-GRIN2A immunoblot.

These are yes or no findings as the source states them, for the method shown. Binding seen in cells or lysates may run through a third protein. Some results given as binding are weak or reduced against the parent protein; the word gives no strength.

Take “human GRIN2A (glutamate receptor, ionotropic, N-methyl D-aspartate 2A), wild-type (from UniProt Q12879 23-1464)”: the binding result is “binds”.
